Assay results as given in article PMC10031136.
No constants are given. Whether binding was seen depends on the method and setting. Binding seen in cells or lysates may run through a third protein. Tags and fused reporters may be left off the sequences shown.

Chains of the proteins cited; added tags and fusions are not shown. Residues count along the entry.
UniProt P10747, residues 19-220: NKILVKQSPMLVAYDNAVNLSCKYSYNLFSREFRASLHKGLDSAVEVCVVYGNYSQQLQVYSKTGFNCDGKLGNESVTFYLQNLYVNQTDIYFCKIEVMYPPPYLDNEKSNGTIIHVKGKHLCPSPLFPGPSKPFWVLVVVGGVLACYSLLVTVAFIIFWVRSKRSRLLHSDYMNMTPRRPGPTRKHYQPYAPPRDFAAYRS

Target: CD28 costimulatory receptor (human (endogenous in Jurkat)) (UniProt P10747)
Test: co-IP; anti-CD28 immunoprecipitation from lysates of Jurkat E6.1 T cells transfected with Xpress-tagged PKCθ vectors, stimulated for 5 min with anti-CD3 plus anti-CD28 mAbs; immunoblot

binding: no binding
B1: Xpress-tagged PKCθ T/A (A335P) (enzyme, UniProt Q04759 1-706)
chain: MSPFLRIGLSNFDCGSCQSCQGEAVNPYCAVLVKEYVESENGQMYIQKKPTMYPPWDSTFDAHINKGRVMQIIVKGKNVDLISETTVELYSLAERCRKNNGKTEIWLELKPQGRMLMNARYFLEMSDTKDMNEFETEGFFALHQRRGAIKQAKVHHVKCHEFTATFFPQPTFCSVCHEFVWGLNKQGYQCRQCNAAIHKKCIDKVIAKCTGSAINSRETMFHKERFKIDMPHRFKVYNYKSPTFCEHCGTLLWGLARQGLKCDACGMNVHHRCQTKVANLCGINQKLMAEALAMIESTQQARCLRDTEQIFREGPVEIGLPCSIKNEARPPCLPAPGKREPQGISWESPLDEVDKMCHLPEPELNKERPSLQIKLKIEDFILHKMLGKGSFGKVFLAEFKKTNQFFAIKALKKDVVLMDDDVECTMVEKRVLSLAWEHPFLTHMFCTFQTKENLFFVMEYLNGGDLMYHIQSCHKFDLSRATFYAAEIILGLQFLHSKGIVYRDLKLDNILLDKDGHIKIADFGMCKENMLGDAKTNTFCGTPDYIAPEILLGQKYNHSVDWWSFGVLLYEMLIGQSPFHGQDEEELFHSIRMDNPFYPRWLEKEAKDLLVKLFVREPEKRLGVRGDIRQHPLFREINWEELERKEIDPPFRPKVKSPFDCSNFDKEFLNEKPRLSFADRALINSMDQNMFRNFSFMNPGMERLIS
